Test results reported in patent US8618097B2, “Pyrimidyl cyclopentanes as AKT protein kinase inhibitors” (Array Biopharma, Inc., priority 2007, dated 2013).
Some of these results come from one statement about several compounds together.

Amino acid sequences for entries named in this document (tags omitted). A change or cut given only in a name is not applied to a line headed by its entry.
UniProt P31749: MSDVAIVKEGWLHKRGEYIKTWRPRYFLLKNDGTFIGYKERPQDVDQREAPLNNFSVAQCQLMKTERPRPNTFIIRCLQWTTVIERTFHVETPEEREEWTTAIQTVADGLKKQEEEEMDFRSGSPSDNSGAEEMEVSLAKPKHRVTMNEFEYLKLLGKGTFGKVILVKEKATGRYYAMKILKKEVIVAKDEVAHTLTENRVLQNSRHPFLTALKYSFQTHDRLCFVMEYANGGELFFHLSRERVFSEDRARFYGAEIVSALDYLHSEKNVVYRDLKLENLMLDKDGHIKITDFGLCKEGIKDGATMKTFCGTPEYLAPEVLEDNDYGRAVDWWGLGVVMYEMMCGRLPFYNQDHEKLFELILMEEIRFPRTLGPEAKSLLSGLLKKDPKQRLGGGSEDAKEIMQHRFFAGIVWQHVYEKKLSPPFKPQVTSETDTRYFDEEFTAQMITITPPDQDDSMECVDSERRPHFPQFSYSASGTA

Biological target: full-length human recombinant active AKT-1 (Homo sapiens, UniProt P31749)
Assay: AKT-1 Kinase Assay (IMAP fluorescence polarization)
Type: biochemical
Details: phosphorylation of fluorescently-labeled peptide (Crosstide) by AKT-1, fluorescent polarization, IMAP kit

Compound `C[C@@H]1C[C@@H](O)c2ncnc(N3CCN(C(=O)[C@@H](c4c[nH]c5ccccc45)[C@@H]4CCC(C)(C)N4)CC3)c21` [Example 141, (S)-2-((S)-5,5-dimethylpyrrolidin-2-yl)-1-(4-((5R,7R)-7-hydroxy-5-methyl-6,7-dihydro-5H-cyclopenta[d]pyrimidin-4-yl)piperazin-1-yl)-2-(1H-indol-3-yl)ethanone] has an IC50 of under 1 µM.
